This passage reports binding results from patent publication US20170051048A1.

Amino acid sequences for entries named in this document (tags omitted). A change or cut given only in a name is not applied to a line headed by its entry.
UniProt P01138: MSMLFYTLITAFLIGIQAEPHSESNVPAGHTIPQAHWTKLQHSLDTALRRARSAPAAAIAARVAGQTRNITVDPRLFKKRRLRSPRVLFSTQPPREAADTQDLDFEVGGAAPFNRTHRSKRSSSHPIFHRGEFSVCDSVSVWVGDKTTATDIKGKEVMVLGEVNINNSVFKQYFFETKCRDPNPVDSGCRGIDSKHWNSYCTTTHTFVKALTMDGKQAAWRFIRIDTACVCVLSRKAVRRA

The test concerns the target Homo sapiens Beta-Nerve Growth Factor (beta-NGF) (Homo sapiens) (UniProt P01138). Briefly: ELISA, biotinylated NGF on neutravidin plates, anti-human Fc-HRP. (An ELISA detects its analyte on a solid surface through an enzyme-linked reagent.)

These are yes or no findings as the source states them, for the method shown. Some results given as binding are weak or reduced against the parent protein; the word gives no strength.

B1: Antibody Ab20 (antibody, human IgG1, kappa, N297A, V domains shown)
VH: EVQLVESGGGLVQPGGSLRLSCAASGFTVSTYWMSWVRQAPGKGLEWVGDIYFSNEETNYATSAKGRFTISRDNSKNTLYLQMNSLRAEDTAVYYCARGSPDVEIAIDMWGQGTLVTVSS
VL: DIQMTQSPSSLSASVGDRVTITCQSSQNVYKNNYLSWYQQKPGKVPKLLIYKASTLASGVPSRFSGSGSGTDFTLTISSLQPEDVATYYCAGGYTSSSDNAFGGGTKVEIKR
With B1, the binding entry is “binds”.
